This test is described as follows: qHTS Assay to Find Inhibitors of Chronic Active B-Cell Receptor Signaling. To be noted: ABC-DLBCL IkBa-CBG/CBR reporter, luminescence ratio (green luciferase fused to IkBa over red control in TMD8 lymphoma cells), 4 h. In short, it runs like this: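 Compounds up to 46 uM were incubated four hours with TMD8 cells whose green CBG68 luciferase is fused to IkappaBalpha; red CBR luminescence normalised the signal, and concentration-effect curves were fitted to fusion, red and ratio data.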
(In general: qHTS replaces the single test concentration by a dilution series.)

[1] abbreviates: measured here: CBR red luminescence, cell number.
[2] abbreviates: measured here: IkBa-CBG green luminescence.

AC50 data for 65 compounds are collected here from PubChem BioAssay AID493014 (National Center for Advancing Translational Sciences (NCATS), 2011).

The other results are listed elsewhere or left out. These are further read-outs of the screen, such as a control signal, another cell line or another target. No call is given for them. Compounds called inactive in the main read-out are mostly missing here. Words in brackets tell the shape of the fitted curve; partial curves, single points and poor fits give uncertain potencies.

One may read the AC50 as the concentration at which the activity in the assay is half-maximal.

For `COc1ccc(C(=O)NCC(=O)N/N=C/C(C)=C/c2ccco2)cc1OC`, the AC50 under setting [1] was 0.092 µM [rising, full curve, poor fit]. The same measure, in the same setting: for `O=C(CO/N=C/c1ccc(Cl)cc1Cl)NNC(=O)c1cccc(Cl)c1` the value was 15.8 µM [rising, single point]; for `COc1ccc(N(CC(=O)Nc2ccc(F)c(F)c2)S(=O)(=O)c2c(C)n[nH]c2C)cc1`, 35.5 µM [falling, single point]. The same measure, in the same setting: for `O=C(Nc1ccccc1)/C(=C/c1cccc(Br)c1)NC(=O)c1ccco1` the value was 1.16 µM [rising, full curve].

In the case of `Cc1ccc2cc(NC(=O)Cc3ccccc3)ccc2n1`, under setting [2], the AC50 is 1.26 µM [rising, full curve, poor fit].

As for `Cc1cccc(C(=O)NNC(=O)c2ccccc2)c1`, the AC50 under setting [1] was 11.6 µM [falling, partial curve].

Take `O=C(Nc1ncn[nH]1)c1ccccc1O`: the AC50 under setting [1] was 35.5 µM [falling, single point]. For the compound `COc1cccc(-c2cc3nc(-c4ccccc4)cc(=O)n3[nH]2)c1`, the AC50 is, setting by setting: under setting [1], 7.08 µM [falling, partial curve]; under setting [2], 12.6 µM [falling, single point]. On to `COc1cccc(-c2cc(C(=O)NC3CCCC3)no2)c1`, for which the AC50 under setting [1] is 7.31 µM [falling, partial curve]. The same measure, in the same setting: for `O=S(=O)(c1ccc(NC(=S)Nc2ccc(OC(F)F)cc2)cc1)N1CCOCC1` the value was 29.1 µM [rising, single point]; for `COc1ccc2nc(NC(=O)c3ccc(NC(=O)C4CCCO4)cc3)sc2c1` (stereo not drawn), 3.98 µM [falling, partial curve, poor fit]; for `COCCn1cnc2c(c1=O)c1nc3ccccc3nc1n2/N=C/c1ccco1`, 22.4 µM [falling, partial curve, poor fit]. Same read-out and setting: for `Cc1ccccc1NC(=O)Cn1nc(C)c2ccccc2c1=O` the value was 31.6 µM [rising, single point]. As to `CCc1ccc(O)c(N=Cc2ccccc2O)c1`, the concentration at half-maximal activity (AC50) under setting [1] is 29.1 µM [rising, single point]. The same measure, in the same setting: as for `CCOC(=O)c1sc(-c2ccccc2)nc1C`, the figure is 0.501 µM [rising, full curve, poor fit]; as for `O=C(/C=C/c1c(F)cccc1Cl)Nc1ccncc1`, 6.51 µM [rising, single point]. For `Cc1ccc(/C=C/C(=O)N2CCN(c3ncccn3)CC2)o1`, the AC50 under setting [1] was 29.1 µM [falling, single point]. For `Cc1ccsc1C(=O)OCc1csc(-c2ccccc2)n1`, the AC50 under setting [1] was 20.6 µM [falling, partial curve]. The same measure, in the same setting: as for `CSCCC(NS(=O)(=O)c1ccc2c(c1)oc(=O)n2C)C(=O)NCc1ccc(Cl)cc1` (stereo not drawn), the figure is 11.2 µM [rising, partial curve]; as for `CC(=O)Nc1ccc(S(=O)(=O)NCCC(=O)OCC(=O)NCc2ccccc2)cc1`, 20.6 µM [rising, single point]; as for `Nc1scn[n+]1Cc1cccc2cccnc12`, 12.6 µM [falling, partial curve, poor fit]. `COc1ccc(-c2nc(N)ncc2-c2csc(C)n2)c(O)c1`: the AC50 under setting [1] was 11.2 µM [rising, partial curve, poor fit].

In the case of `CC(=O)c1ccc(NC(=O)CN2C(=O)/C(=C/C(C)=C/c3ccccc3)SC2=S)cc1`, the AC50 under setting [1] was 3.66 µM [rising, partial curve].

With `Cc1cccc(NC(=O)C2Cc3ccccc3O/C2=N\O)c1` (stereo not drawn), the AC50 under setting [1] was 0.1 µM [rising, full curve, poor fit]. With `C=CCOc1c(Br)cc(CNc2ccc(NC(=O)CCC)cc2)cc1OCC`, the AC50 under setting [1] was 0.447 µM [rising, partial curve, poor fit]. On to `CCOC(=O)c1c(-c2ccccc2)oc2ccc(OCC(O)CNCCN(C)C)cc12` (stereo not drawn), for which the AC50 under setting [1] was 5.01 µM [falling, partial curve]. On the same count and under the same terms, for `CSc1nc2ccc(NC(=O)c3ccccn3)cc2s1` the value was 15.8 µM [falling, partial curve, poor fit]; for `Cc1ccc(-c2nn(-c3ccccc3)cc2/C=N/n2c(-c3ccncc3)n[nH]c2=S)cc1`, 1 µM [rising, full curve, poor fit]. In the case of `NC(=S)N=Nc1c(O)n(CCCl)c2ccc(Cl)cc12`, the AC50 under setting [1] was 17.8 µM [falling, single point] and the half-maximal activity concentration (AC50) under setting [2] is 3.98 µM [falling, single point].

Turning to `CCOC(=O)N1CCN(C(=O)C(C)N(c2ccc(Oc3ccccc3)cc2)S(C)(=O)=O)CC1` (stereo not drawn), the AC50 under setting [1] is 3.66 µM [rising, partial curve, poor fit]. On to `O=C(CSc1ccccc1)NNC(=O)c1ccccc1O`, for which the concentration at half-maximal activity (AC50) under setting [1] was 22.4 µM [rising, partial curve, poor fit]. With `Cc1nc(S(=O)(=O)c2ccc(Cl)cc2)c(NCc2ccccc2)o1`, under setting [1], the AC50 was 25.9 µM [rising, single point]. As to `Cc1ccc(N(CC(=O)N2CCc3ccccc32)C2=NC(=O)CS2)cc1`, under setting [1], the AC50 was 12.6 µM [rising, partial curve, poor fit]. `O=C(CC1C(=O)NCCN1CC1CCCCC1)NCc1ccc(F)cc1` (stereo not drawn): under setting [1], the AC50 is 6.31 µM [rising, single point]. For the compound `CC1CCCN(C(=O)COc2ccc(Nc3ccccc3)cc2)C1` (stereo not drawn), the AC50 under setting [1] was 0.501 µM [rising, full curve, poor fit]. `Cc1ccc(S(=O)(=O)N/N=C\c2cc([N+](=O)[O-])ccc2Cl)cc1`: the AC50 under setting [1] is 29.1 µM [falling, single point]. Same read-out and setting: for `COc1ccc(/C=C2\SC(=O)N(CCC(=O)Nc3ccc(S(=O)(=O)Nc4nccs4)cc3)C2=O)cc1` the value was 10.3 µM [falling, partial curve]; for `CSc1nc2ccc(NS(=O)(=O)c3cccc(Cl)c3Cl)cc2s1`, 25.9 µM [falling, single point]. For the compound `COc1ccccc1-c1cc(C2CC2)nc(N)c1C#N`, under setting [1], the AC50 is 35.5 µM [rising, single point]. Regarding `CCCC(O)(c1ccc(CC)cc1)C(CN1CCOCC1)c1ccccc1` (stereo not drawn), under setting [1], the AC50 was 17.8 µM [falling, partial curve]. Same read-out and setting: as for `CCOC(=O)C1=C(C)N(CC)C(=S)NC1c1ccccc1OC(F)F` (stereo not drawn), the figure is 35.5 µM [falling, single point]. Consider `N#C/C(=C\c1cccc(NC(=O)c2ccccc2Cl)c1)C(=O)NCCc1ccccc1`, for which the AC50 under setting [2] was 25.9 µM [falling, single point]. As for `CCC(C)C(=O)Nc1nc2ccc(OC)cc2s1` (stereo not drawn), the AC50 under setting [1] was 22.4 µM [falling, single point]. On to `Cc1ccc(-c2cc(C(=O)Nc3cc(C)ccc3O)no2)cc1`, for which, under setting [1], the AC50 is 0.891 µM [falling, full curve, poor fit].

Turning to `CCc1nc(NCCN2CCOCC2)c2oc3ccccc3c2n1`, the AC50 under setting [1] is 12.6 µM [falling, single point].

With `CCOC(=O)c1cc(C(=O)c2cc(F)ccc2O)coc1=N`, the AC50 under setting [1] was 31.6 µM [falling, single point]. Still for that read-out and setting: for `O=C1/C(=C/c2ccc(F)cc2)SC(=S)N1Nc1ncc(C(F)(F)F)cc1Cl` the value was 11.6 µM [falling, partial curve]; for `COC(=O)c1ccc(COc2cc(C)ccc2C)o1`, 3.98 µM [rising, partial curve, poor fit]; for `Clc1ccc(-c2nnc(SCc3ccon3)o2)c(Cl)c1`, 2.06 µM [rising, partial curve, poor fit]. For `S=C(NCc1cccs1)Nc1ccc(Br)cc1Cl`, under setting [1], the AC50 is 2.51 µM [rising, partial curve, poor fit]. On the same count and under the same terms, as for `Cc1cc(C)n(-c2nc(-n3nc(C)cc3C)c3c4c(sc3n2)COC(C)(C)C4)n1`, the figure is 35.5 µM [rising, single point]. On to `CC(=O)Nc1cccc(C(=O)OCC(=O)NCc2cc(C)c(O)c(C)c2)c1`, for which the AC50 under setting [1] is 25.9 µM [rising, partial curve, poor fit].

Consider `CCc1ccc(NC(=O)c2cnn3ccccc23)cc1`, for which the AC50 under setting [1] is 16.4 µM [falling, single point]. In the case of `O=C(CS(=O)(=O)c1cn(CC(=O)N2CCCC2)c2ccccc12)Nc1ccccc1F`, under setting [1], the AC50 is 11.2 µM [falling, partial curve, poor fit]. Still for that read-out and setting: as for `Cc1cccc(-c2nc(Nc3ccc(O)cc3)c3ccccc3n2)c1`, the figure is 14.1 µM [falling, partial curve, poor fit]; as for `CS(=O)(=O)N(CC(=O)NCCSc1ccccn1)c1cccc2ccccc12`, 6.51 µM [rising, full curve, poor fit]. Same read-out and setting: for `O=C(NNC(=O)c1nn(-c2ccc(F)cc2)ccc1=O)c1ccc(C(F)(F)F)cc1` the value was 3.98 µM [rising, partial curve, poor fit]; for `Cc1ccc(C(=O)N2CCN(c3ccc(NC(=O)c4cccnc4)cc3)CC2)cc1`, 20.6 µM [falling, single point]; for `CCOc1ccc(OCc2ccc(C(=O)N3CCCC3)o2)cc1`, 23.1 µM [falling, single point]. For the compound `COc1ccccc1C(=O)NNC(=O)c1cccc(F)c1`, the AC50 under setting [1] was 5.17 µM [falling, partial curve]. On to `COC(=O)c1cscc1NC(C)=O`, for which the concentration at half-maximal activity (AC50) under setting [1] is 6.31 µM [falling, single point]. Still for that read-out and setting: as for `O=c1oc2ccccc2c2[nH]ccc12`, the figure is 2.82 µM [falling, partial curve, poor fit]; as for `O=[N+]([O-])c1ccc(/C=N/Nc2nc(N3CCCCC3)nc(N3CCCCC3)n2)o1`, 29.1 µM [rising, single point].

Turning to `COc1ccc(OCC(=O)NCc2ccc3c(c2)CCN3C(=O)c2cccc(C)c2)cc1`, the AC50 under setting [1] was 0.447 µM [falling, full curve, poor fit] and the AC50 under setting [2] was 35.5 µM [falling, single point]. Take `Oc1ccc(C(c2nnnn2C2CCCC2)N2CCc3ccccc3C2)cc1` (stereo not drawn): the half-maximal activity concentration (AC50) under setting [1] was 11.2 µM [falling, partial curve, poor fit].
